Reference: EP4847020A1, “USE OF SMALL MOLECULE COMPOUND IN TREATMENT OF CARDIOVASCULAR DISEASES” (dated 2026)
The structures given here were assigned with low confidence; some may be wrong.

Sequences of proteins named here, by UniProt entry; tags and fusion partners are left off.
UniProt P05412, whole entry: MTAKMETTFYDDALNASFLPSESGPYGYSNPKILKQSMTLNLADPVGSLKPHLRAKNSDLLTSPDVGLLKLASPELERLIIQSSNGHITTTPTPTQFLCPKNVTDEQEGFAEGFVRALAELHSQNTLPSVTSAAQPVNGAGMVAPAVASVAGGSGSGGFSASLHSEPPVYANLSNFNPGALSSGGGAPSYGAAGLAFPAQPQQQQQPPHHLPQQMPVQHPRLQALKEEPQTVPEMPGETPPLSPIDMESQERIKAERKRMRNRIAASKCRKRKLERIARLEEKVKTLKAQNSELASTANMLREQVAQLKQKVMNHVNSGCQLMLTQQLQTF

Legend:
HFpEF animal model [1] = test: HFpEF mouse model (HFD + L-NAME), Example 2: therapeutic efficacy; conditions: 12 mg/kg per administration, every other day; 3-week point after the administration
Protocol: The materials and reagents, animal experiment guidelines, and induction of heart failure with preserved ejection fraction model were the same as in Example 1.
The administration method was as follows: After successful induction of the animal model, the model treatment group was treated with the compounds of the present invention (e.g., compounds T3, T5, T8 to T16) or T-5224. The model control group was treated with the drug-free vehicle as a control. Mice fed normally with food and water throughout the induction period served as the negative control. After the mice were raised to 5 to 8 weeks of age, drug treatment was initiated following echocardiography and Doppler imaging confirmation of successful model establishment. For the treatment groups, T3, T5, T8 to T16, and T-5224 were administered at a dose of 12 mg/kg per administration based on mouse body weight. Specifically, the compounds were administered every other day. Each time, 0.54 mg of the compound was dissolved in 100 µL of 0.5% PVP solution (in practice, the drug solution was prepared based on the number of mice. For example, for 14 mice, 8 mg of the compound was dissolved in 1.5 mL of solution, and each mouse received 100 µL of the solution). Drug treatment was initiated after successful model induction. The control group received an equal volume of 0.5% PVP solution, with all other treatments being the same.

c-Jun/AP-1 = c-Jun/AP-1 (Homo sapiens, UniProt P05412); test: TransAM kit test of c-Jun transcription factor binding activity to DNA; conditions: remaining binding of c-Jun to dsDNA; lower binding activity = stronger inhibition; drugs tested at 500-31.25 µM, concentration of the tabulated value not stated
Protocol: The binding ability of DNA to transcription factor was tested using TransAM kits (Active Motif 46096). The transcription factor was c-Jun/AP-1. Drugs at final concentrations of 500 µM, 250 µM, 125 µM, 62.5 µM, and 31.25 µM, along with 1 µL of cell extract containing the transcription factor, were sequentially added to a 96-well plate pre-coated with double-stranded DNA oligonucleotides. After incubation for 1 hour, the plate was incubated with an antibody against the c-JUN transcription factor. The absorbance at 450 nm was measured, with absorbance at 655 nm used as background. The binding activity of the dsDNA sequence to the transcription factor was measured. Lower binding activity indicates stronger inhibitory activity of compound.

JUN transcription = test: Dual-luciferase reporter assay (pGL4.44[luc2P/AP1 RE/Hygro]) in PMA-stimulated 293T cells, inhibition of transcriptional activity; conditions: for Luc: PMA 10 ng/ml, PMA alone = 100.0%
Protocol: 293T cells were passaged at a ratio of 1:3, plated, and incubated for 24 hours. The medium was replaced with antibiotic-free medium Opti-MEM (Gibco, 11058021). The 293T cells were transiently transfected with the luciferase reporter plasmid pGL4.44[luc2P/AP1 RE/Hygro] (Promega E411) and cultured for 24 hours. The cells were incubated for 1 hour in 1% PS/10% FBS/DMEM (Gibco, 11965092) containing the drugs at final concentrations of 50 µM, 25 µM, 12.5 µM, and 6.25 µM. Subsequently, the cells were stimulated with PMA (final concentration 10 ng/ml) (Sigma, 79346-5MG) and cultured for 34 hours. Lysates were measured using the Dual-Luciferase Reporter Assay System (Promega). Both the drugs and PMA were prepared as stock solutions in DMSO, diluted with culture medium, and added to the culture.

Jun = Jun expression in cardiomyocytes isolated from HFpEF model mice, quantitative PCR; conditions: mouse cardiomyocytes, model treatment group compared with model control group; total dose 250 mg/kg
Protocol: In order to isolate cardiomyocytes from the heart of adult mice, we used the classic perfusion method to isolate cardiomyocytes. Specifically, mice were injected with 100 µl of sodium heparin (1000 units in 50 ml) 20 minutes before being killed to prevent heart coagulation during the operation, which increased the difficulty of digestion. After that, the mice were anesthetized and killed, and the hearts were removed and transferred to a calcium-free solution for washing. Then, the Langendorff method was used for digestion. The heart was perfused with a calcium-free solution for 5 minutes using a Langendorff apparatus, and then digested with digestive enzyme solution (0.7 mg/ml type II collagenase and 0.7 mg/ml bovine serum albumin in a calcium-free solution) for about 30 minutes. The heart was constantly touched at about 20 minutes. […]
Total RNA was extracted from cells using GeneJet RNA purification kit (Thermo Scientific, K0732), and 0.1µg of total RNA was reverse transcribed using iScript TM cDNA synthesis kit (Bio-Rad, 1708890) to generate cDNA. qPCR was performed using iTaqUniversl SYBR Green supermix (1725121, Bio-Rad) on ABI Vii7 real-time system (Life Technologies, Q6), and b-Actin was used for standardized quantitative analysis. […]

HFpEF animal model [2] = test: HFpEF mouse model (HFD + L-NAME), Example 1: echocardiography/Doppler imaging and body weight; conditions: total dose 250 mg/kg, vs model control
Source text: Male C57BL/6N wild-type mice aged 8 to 10 weeks were divided into three groups, namely, normal group (normal diet and drinking water), model control group (high-fat diet combined with administration of N-nitro-L-arginine methyl ester) and model treatment group (high-fat diet combined with administration of N-nitro-L-arginine methyl ester and treatment with T-5224). Among them, the model control group and the model treatment group were modeled by the following literature: Gabriele G. Schiattarella et al., Nitrosative stress drives heart failure with preserved ejection fraction, https://doi.org/10.1038/s41586-019-1100-z. Specifically, heart failure with preserved ejection fraction was induced by a high-fat diet (HFD) (60% kcal, from fat (lard)) and N-nitro-L-arginine methyl ester (abbreviated as L-NAME, 0.5 g/L in drinking water) to obtain the HFpEF animal model. […]
All the mice were raised under different conditions for five weeks and then began to undergo conventional echocardiography and Doppler imaging, which was performed every two weeks until the end of the 15th week. […] All parameters were measured at least 3 times, and the mean values were provided. […]

| SMILES | inhibitory effect on disease progression (HFpEF animal model [1]) | DNA Binding Activity (%) (c-Jun/AP-1) | Luc (JUN transcription; 6.25 µM) | Luc (JUN transcription; 12.5 µM) | Luc (JUN transcription; 25 µM) | Luc (JUN transcription; 50 µM) | activity in inhibiting JUN transcription (in words) (JUN transcription; AP1 luciferase reporter) | expression of Jun (Jun) | diastolic function (HFpEF animal model [2]; HFD + 0.5g/L L-NAME mice, every other day from 5th to 13th week, maintained until the 15th week) | mouse obesity (body weight) (HFpEF animal model [2]; HFD + L-NAME mice) |
| --- | --- | --- | --- | --- | --- | --- | --- | --- | --- | --- |
| CCOC(=O)CCc1cc(C(=O)c2ccc(OC3CCCC3)cc2O)ccc1OCc1ccc2c(O)noc2c1 | significantly inhibited disease progression | 4.5% | 85.2% | 73.5% | 63.2% | 11.6% | showed activity in inhibiting JUN transcription | – | – | – |
| O=C(O)CCc1cc(C(=O)c2ccc(OC3CCCC3)cc2O)ccc1OCc1ccc2c(O)noc2c1 | had not yet shown any inhibitory effect on disease progression | 10.0% | 92.3% | 75.7% | 102.6% | 75.5% | – | down-regulated | significantly improved | improved |
| COCn1oc2cc(COc3ccc(C(=O)c4ccc(OC5CCCC5)cc4O)cc3CCC(=O)OC)ccc2c1=O | – | 81.0% | – | – | – | – | – | – | – | – |
